Measured data: PubChem BioAssay AID1259254 (NCATS, 2017)
The whole screen tested about 59,000 reagents; this is an unselected part. About 1,550 of all reagents (2.6%) were called active. 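G2 share is only a proxy for re-replication; each gene was hit by three separate siRNAs, and active genes were retested.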 Entries without a mark were called inactive. The numbers tell different reagents against one gene apart. Further read-outs or replicates are left out here. The record does not give: the amount of reagent.

Aim: 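Gene knock-downs that lead to re-replication, shown by excess G2 DNA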 (primary screen)
Cells: human HCT116 colorectal cancer cells
Reagent: single siRNA against human genes
Timing: 3 days
Detection: 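Imaged Hoechst DNA stain sorts each cell into a cycle phase by DNA amount; per plate, G2 fraction set to 0% for non-targeting and 100% for GMNN siRNA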
Scale: G2 robust z-score: higher = more G2 cells, more excess DNA replication
Hit rule: 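Active siRNAs have a G2 robust z of 5 or more median absolute deviations over the median, which in these data means about 38% or higher of GMNN control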

Gene,reagent,G2 robust z-score
NOP56,1,2.28
NOP56,2,1.78
NOP56,3,1.91
UBE2R2,1,3.01
UBE2R2,2,-0.281
UBE2R2,3,-1.02
ZNF137P,1,-0.9
ZNF137P,2,0.309
ZNF137P,3,2.58
CCNI2,1,-0.215
CCNI2,2,1.92
CCNI2,3,-0.324
C3orf80,1,-1.02
C3orf80,2,-0.849
C3orf80,3,0.712
PCDHGA10,1,-0.97
PCDHGA10,2,2.6
PCDHGA10,3,2.7
PANK3,1,-0.577
PANK3,2,1.57
PANK3,3,-0.483
ESF1,1,2.81
ESF1,2,-0.139
ESF1,3,2.39
KRTAP5-8,1,-0.554
KRTAP5-8,2,0.216
KRTAP5-8,3,0.239
CNOT11,1,-0.393
CNOT11,2,0.858
CNOT11,3,0.21
WEE1,1,4.65
WEE1,2,1.8
WEE1,3,0.644
AJM1,1,2.54
AJM1,2,-0.661
AJM1,3,2.87
FAM161B,1,1.77
FAM161B,2,1.47
FAM161B,3,-0.448
SUSD3,1,0.548
SUSD3,2,-0.085
SUSD3,3,-0.305
MB,1,-1.21
MB,2,-0.393
MB,3,-0.0807
C11orf87,1,0.546
C11orf87,2,1.32
C11orf87,3,-1.51

Reprinted from the entries so far, 2 entries:
Gene,reagent,G2 robust z-score
FAM161B,2,1.47
FAM161B,3,-0.448
